Drawing on PubChem BioAssay AID256 (DTP/NCI, 2004), this text covers survivor count and T/C for 26 molecules.

The experiment has as its system CD2F1 mice, L1210 leukemia ip, survival T/C. The experiment in a line: NCI In Vivo Anticancer Drug Screen. Data for tumor model L1210 Leukemia (intraperitoneal) in CD2F1 (CDF1) mice. Particulars: higher T/C = longer survival. How it is done:
The antitumor activity of compounds was measured in mice bearing transplantable tumors. Survival or tumor size were measured and the results are expressed as the measurement made in the treated group (T) divided by the measurement made in the vehicle treated control group (C). The tumor model used in this assay is L1210 Leukemia (intraperitoneal) in CD2F1 (CDF1) mice

[1] abbreviates: T/C endpoint: mean survival time, dose: 200.0 mg/kg/injection, schedule: Q01DX001 (ip), vehicle: saline with Tween-80.
Setting [2] is: T/C endpoint: mean survival time, dose: 200.0 mg/kg/injection, schedule: Q04DX003 (ip), vehicle: saline with Tween-80.
Setting [3] is: T/C endpoint: mean survival time, dose: 400.0 mg/kg/injection, schedule: Q04DX003 (ip), vehicle: saline with Tween-80.
Setting [4] is: T/C endpoint: mean survival time, dose: 400.0 mg/kg/injection, schedule: Q01DX001 (ip), vehicle: saline with Tween-80.
The mark [5] stands for this setting: T/C endpoint: mean survival time, dose: 200.0 mg/kg/injection, schedule: Q01DX009 (ip), vehicle: saline.
Setting [6] is: T/C endpoint: mean survival time, dose: 400.0 mg/kg/injection, schedule: Q01DX009 (ip), vehicle: saline.
[7] abbreviates: T/C endpoint: mean survival time, dose: 25.0 mg/kg/injection, schedule: Q01DX009 (ip), vehicle: saline with Tween-80.
The mark [8] stands for this setting: T/C endpoint: mean survival time, dose: 50.0 mg/kg/injection, schedule: Q01DX009 (ip), vehicle: saline with Tween-80.
[9] abbreviates: T/C endpoint: median survival time, dose: 200.0 mg/kg/injection, schedule: Q01DX009 (ip), vehicle: saline + Tween-80 + alcohol.

The list does not hold the whole screen: it is rich in T/C values a quarter to a half above the control, in often repeated tests (any T/C) and in doses without a T/C. Further doses and runs are listed elsewhere. T/C: endpoint of the treated group in % of that of the vehicle group. Some entries give survivors of the animals treated and no T/C: the source holds a T/C of zero for them, seemingly a mark for toxic or unscored doses. Some survivor counts are full or nearly so, which does not show that the dose was tolerated: the source hardly ever lists a survival T/C far under the control, and the zero likely stands for such cases as well. Survivors were counted at the toxicity check, usually on the fifth day, unless a day is given; later deaths do not show. Schedules are NCI's codes, read here as Q, the interval in days (D) or hours (H), X, the number of doses. For survival time, this PubChem deposit counts one and a half times the control or more as active, and values a quarter to a half above the control carry no call in these data; other NCI protocols may use other cut-offs. Some T/C values are followed by the survivors on the day toxicity was checked, most often the fifth; where none is given, no animal had died by that day. Some entries were tested several times; the values are given in rising order.

`CCC1CC(=O)C2Nc3ccccc3C2C1` (stereo not drawn): the survivor count under setting [1] is 6 of 6.
Consider `C/C=C1/CC2C=Nc3cc(O)c(OC)cc3C(=O)N2C1` (stereo not drawn), for which the T/C (T/C endpoint: median survival time, dose: 0.64 mg/kg/injection, schedule: Q01DX005 (ip), vehicle: DMSO) is 131 % of control.
In the case of `CC1CCC(C(C)C)/C(=N/NC(=O)CC#N)C1` (stereo not drawn), the survivor count (T/C endpoint: mean survival time, dose: 400.0 mg/kg/injection, schedule: Q01DX001 (ip), vehicle: saline) is listed as 0 of 4.
Turning to `C=CCOc1c(C)cc(C(C)(C)c2cc(C)c(OCC=C)c(C)c2)cc1C`, the survivor count (T/C endpoint: mean survival time, dose: 200.0 mg/kg/injection, schedule: Q01DX001 (ip), vehicle: other) is given as 6 of 6.
`C=CCSc1ncnc2c1cnn2C1OC(CO)C(O)C1O` (stereo not drawn): the survivor count by setting is: (T/C endpoint: mean survival time, dose: 200.0 mg/kg/injection, schedule: Q01DX005 (ip), vehicle: water) 1 of 3; (T/C endpoint: mean survival time, dose: 400.0 mg/kg/injection, schedule: Q01DX005 (ip), vehicle: water) 2 of 3.
For the molecule `Fc1ccc(N2CCNCC2)cc1`, the survivor count (T/C endpoint: mean survival time, dose: 100.0 mg/kg/injection, schedule: Q04DX003 (ip), vehicle: saline with Tween-80) is 2 of 6; the survivor count under setting [2] is reported as 0 of 6; the survivor count under setting [3] is listed as 0 of 6.
As to `O=C(O)/C(O)=C(/O)C(=O)O.[NH-]C1CCCCC1[NH-].[Pt+2]`, the T/C (T/C endpoint: median survival time, dose: 3.12 mg/kg/injection, schedule: Q04DX003 (ip), vehicle: saline) is 132 % of control; the T/C (T/C endpoint: median survival time, dose: 50.0 mg/kg/injection, schedule: Q04DX003 (ip), vehicle: saline) is 133 % of control; the T/C (T/C endpoint: median survival time, dose: 100.0 mg/kg/injection, schedule: Q04DX003 (ip), vehicle: saline) is 141 and 146 % of control. Moreover, the survivor count (T/C endpoint: median survival time, dose: 200.0 mg/kg/injection, schedule: Q04DX003 (ip), vehicle: saline) is 6 of 6.
For `CCCCCCCC[n+]1cccc(C(=O)c2ccccc2)c1`, the survivor count is, setting by setting: (T/C endpoint: mean survival time, dose: 150.0 mg/kg/injection, schedule: Q01DX001 (ip), vehicle: saline) 0 of 6; (T/C endpoint: mean survival time, dose: 300.0 mg/kg/injection, schedule: Q01DX001 (ip), vehicle: saline) 0 of 6.
On to `C=CCNC(N)=O`, for which the survivor count (T/C endpoint: mean survival time, dose: 400.0 mg/kg/injection, schedule: Q04DX003 (ip), vehicle: saline) is on record as 1 of 6.
With `CC(c1ccccc1)n1cncc1CN1CCOCC1` (stereo not drawn), the survivor count by setting is: under setting [1], 0 of 6; under setting [4], 0 of 6.
For the molecule `CCN(CC)[P+](c1ccccc1O)(N(CC)CC)N(CC)CC`, the survivor count (T/C endpoint: mean survival time, dose: 1.56 mg/kg/injection, schedule: Q01DX009 (ip), vehicle: saline) is recorded as 0 of 6; the survivor count (T/C endpoint: mean survival time, dose: 3.12 mg/kg/injection, schedule: Q01DX009 (ip), vehicle: saline) is 0 of 6; the survivor count (T/C endpoint: mean survival time, dose: 6.25 mg/kg/injection, schedule: Q01DX009 (ip), vehicle: saline) is listed as 0 of 6; the survivor count (T/C endpoint: mean survival time, dose: 12.5 mg/kg/injection, schedule: Q01DX009 (ip), vehicle: saline) is given as 0 of 6; the survivor count (T/C endpoint: mean survival time, dose: 25.0 mg/kg/injection, schedule: Q01DX009 (ip), vehicle: saline) is given as 0 of 6; the survivor count (T/C endpoint: mean survival time, dose: 50.0 mg/kg/injection, schedule: Q01DX009 (ip), vehicle: saline) is listed as 0 of 6. Also, the survivor count is 0 of 6 (T/C endpoint: mean survival time, dose: 100.0 mg/kg/injection, schedule: Q01DX009 (ip), vehicle: saline); 0 of 6 under setting [5]; 0 of 6 under setting [6].
With `CCCCS(=O)CC(CO)NC(=O)/C=C/c1c(C)[nH]c(=O)[nH]c1=O` (stereo not drawn), the T/C is 132 % of control (T/C endpoint: mean survival time, dose: 1.25 mg/kg/injection, schedule: Q01DX009 (ip), vehicle: water); 138 % of control (T/C endpoint: mean survival time, dose: 5.0 mg/kg/injection, schedule: Q01DX009 (ip), vehicle: water); 125 % of control (T/C endpoint: mean survival time, dose: 10.0 mg/kg/injection, schedule: Q01DX009 (ip), vehicle: water).
As to `NNC(=O)CCc1ccccc1Br`, the survivor count (T/C endpoint: mean survival time, dose: 200.0 mg/kg/injection, schedule: Q01DX009 (ip), vehicle: saline with Tween-80) is given as 6 of 6 and the survivor count under setting [3] is reported as 6 of 6.
For `COc1cc2c(oc(=O)c3cc(C)cc(OC)c32)c2c(C3OC(C)C(O)C(C)(O)C3O)ccc(O)c12` (stereo not drawn), the T/C is, setting by setting: (T/C endpoint: median survival time, dose: 50.0 mg/kg/injection, schedule: Q01DX005 (ip), vehicle: DMSO) 125 % of control; (T/C endpoint: median survival time, dose: 200.0 mg/kg/injection, schedule: Q01DX005 (ip), vehicle: DMSO) 125 % of control.
On to `O=NN(c1ccccc1)c1ccc([N+](=O)[O-])cc1`, for which the survivor count (T/C endpoint: mean survival time, dose: 400.0 mg/kg/injection, schedule: Q01DX009 (ip), vehicle: saline with Tween-80) is recorded as 6 of 6.
In the case of `CCCC[CH2][Pb]([CH2]CCCC)([CH2]CCCC)[O]C(C)=O`, the survivor count was 5 of 6 (T/C endpoint: mean survival time, dose: 2.0 mg/kg/injection, schedule: Q04DX003 (ip), vehicle: saline with Tween-80) and 4 of 6 (T/C endpoint: mean survival time, dose: 4.0 mg/kg/injection, schedule: Q04DX003 (ip), vehicle: saline with Tween-80).
With `O=[N+]([O-])c1cc(C(F)(F)F)ccc1F`, the survivor count runs as follows: under setting [2], 0 of 6; under setting [3], 0 of 6.
For the molecule `C=C1C(=O)OC2CC1C(OC(C)=O)CC1(C)OC1CCC1(C)OC1CCC2(C)O` (stereo not drawn), the survivor count reads like this: (T/C endpoint: mean survival time, dose: 50.0 mg/kg/injection, schedule: Q01DX009 (ip), vehicle: Klucel (hydroxypropylcellulose) (HPC)) 4 of 6; (T/C endpoint: mean survival time, dose: 100.0 mg/kg/injection, schedule: Q01DX009 (ip), vehicle: Klucel (hydroxypropylcellulose) (HPC)) 2 of 6.
With `O=C1/C(=C/c2ccc(Cl)cc2Cl)CCC/C1=C\c1ccc(Cl)cc1Cl`, the survivor count was 6 of 6 under setting [7]; 6 of 6 under setting [8]; 6 of 6 (T/C endpoint: mean survival time, dose: 100.0 mg/kg/injection, schedule: Q01DX001 (ip), vehicle: saline with Tween-80); 6 of 6 under setting [1]; 6 of 6 under setting [4].
Consider `CC(=O)Oc1ccccc1O`, for which the T/C is 97, 103, 111, 112 % of control (T/C endpoint: median survival time, dose: 50.0 mg/kg/injection, schedule: Q01DX009 (ip), vehicle: saline + Tween-80 + alcohol); 114, 128 [5 of 6 alive], 133, 148 % of control (T/C endpoint: median survival time, dose: 100.0 mg/kg/injection, schedule: Q01DX009 (ip), vehicle: saline + Tween-80 + alcohol); 97 [4 of 6 alive], 136, 165 % of control under setting [9]. Further, the survivor count reads like this: under setting [9], 3 of 6; (T/C endpoint: median survival time, dose: 400.0 mg/kg/injection, schedule: Q01DX009 (ip), vehicle: saline + Tween-80 + alcohol) 0 of 6.
As to `CC(C)(C)[O][Pb]([c]1ccccc1)([c]1ccccc1)[c]1ccccc1`, the survivor count is 0 of 6 (T/C endpoint: mean survival time, dose: 12.5 mg/kg/injection, schedule: Q01DX009 (ip), vehicle: saline with Tween-80); 0 of 6 under setting [7]; 0 of 6 under setting [8].
For `N#Cc1nc(-c2ccco2)c(-c2ccco2)nc1C#N`, the survivor count is, setting by setting: under setting [1], 5 of 6; under setting [4], 2 of 6.
With `Cc1cc2c(C(C)C)c(O)c(O)c(C=O)c2c(O)c1-c1c(C)cc2c(C(C)C)c(O)c(O)c(C=O)c2c1O`, the survivor count is recorded as 3 of 6 (T/C endpoint: median survival time, dose: 25.0 mg/kg/injection, schedule: Q01DX009 (ip), vehicle: saline with Tween-80); 0 of 6 (T/C endpoint: median survival time, dose: 50.0 mg/kg/injection, schedule: Q01DX009 (ip), vehicle: saline with Tween-80); 0 of 6 (T/C endpoint: median survival time, dose: 100.0 mg/kg/injection, schedule: Q01DX009 (ip), vehicle: saline with Tween-80).
Take `CC(=O)c1cno[n+]1[O-]`: for the setting “T/C endpoint: mean survival time, dose: 20.0 mg/kg/injection, schedule: Q01DX009 (ip), vehicle: saline with Tween-80”, the survivor count is recorded as 1 of 6.
`COc1cc2c(cc1OC)C1Cc3ccc4cc(OC)c(OC)cc4c3CN1CC2` (stereo not drawn): the survivor count runs as follows: under setting [5], 3 of 6; under setting [6], 1 of 6.
With `CCCCCCCCCCCCCCCCCCNC(=O)Nc1cccc(OC)c1`, the survivor count (T/C endpoint: mean survival time, dose: 100.0 mg/kg/injection, schedule: Q04DX002 (ip), vehicle: saline with Tween-80) was 3 of 3.
